The text below walks through data of patent US20160193292A1.

The test addresses T1, JNK-interacting protein 1 (JIP-1) (UniProt Q9WVI9).
T1 sequence (looked up): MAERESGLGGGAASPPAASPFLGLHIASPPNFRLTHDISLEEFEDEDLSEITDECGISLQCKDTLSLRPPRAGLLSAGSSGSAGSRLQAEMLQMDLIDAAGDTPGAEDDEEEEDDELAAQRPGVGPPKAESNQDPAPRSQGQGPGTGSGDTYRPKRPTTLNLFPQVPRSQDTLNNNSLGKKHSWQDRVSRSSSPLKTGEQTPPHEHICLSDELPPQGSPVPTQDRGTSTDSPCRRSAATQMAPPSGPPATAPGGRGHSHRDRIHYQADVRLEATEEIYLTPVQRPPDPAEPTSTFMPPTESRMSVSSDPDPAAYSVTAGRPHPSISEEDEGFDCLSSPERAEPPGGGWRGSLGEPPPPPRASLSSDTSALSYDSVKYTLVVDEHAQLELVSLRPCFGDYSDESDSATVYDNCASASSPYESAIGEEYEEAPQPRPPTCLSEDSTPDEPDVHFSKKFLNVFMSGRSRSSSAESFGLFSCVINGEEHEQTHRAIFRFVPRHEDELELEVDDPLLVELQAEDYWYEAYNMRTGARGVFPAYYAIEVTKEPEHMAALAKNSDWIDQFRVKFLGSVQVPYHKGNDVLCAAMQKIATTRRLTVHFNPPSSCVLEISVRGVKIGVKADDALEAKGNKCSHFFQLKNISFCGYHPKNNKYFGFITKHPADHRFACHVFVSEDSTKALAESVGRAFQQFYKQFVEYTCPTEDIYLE
The test can be described thus: IP-FCM with α-JIP-1 beads, lysates of stimulated OT-I T cells.

These are yes or no findings as the source states them, for the method shown. Some entries that bind do so weakly or less than the wild type.

For the substance “JNK2 (from UniProt Q9WTU6 1-423) (enzyme)”, the binding entry was “binds”.
